For this experiment, the target named is CHD1 D425A (UniProt O14646). Kind of experiment: isothermal titration calorimetry implied (data not shown).

Protein sequences, listed by entry. Tags and fused reporters are not part of them. Lines headed by an entry give the natural chain unless they say otherwise; changes in a name come on top. Chains listed by the source or under a name are the forms on record and can include a tag or linker.
CHD1 D425A (O14646, form named): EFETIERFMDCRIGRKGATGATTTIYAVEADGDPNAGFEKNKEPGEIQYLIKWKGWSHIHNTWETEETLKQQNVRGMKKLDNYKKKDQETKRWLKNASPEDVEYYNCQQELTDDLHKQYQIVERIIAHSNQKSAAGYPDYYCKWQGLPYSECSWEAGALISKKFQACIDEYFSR

Results are given in words; binding and its absence hold for the method and conditions named. Some results given as binding are weak or reduced against the parent protein; the word gives no strength.

Regarding “H3K4me3 peptide (from UniProt P68431 2-22)”, the binding entry is given as “binds”.

Values taken from patent publication US20180036256A1.
